# Source: PubChem BioAssay AID720505 (Drosophila RNAi Screening Center, 2013)
# Assay: 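Fly regulators or components of the CRAC channel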 (primary screen)
# Cell system: Drosophila S2R+ cells
# Knock-down reagent: long dsRNA against Drosophila genes
# Challenge: thapsigargin (2 µM) in calcium-free buffer to empty internal stores, then 2 mM calcium added back
# Detection: 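Fluo-4 signal in 384-well plates read on a FLIPR after thapsigargin (2 µM, calcium-free) store depletion and 2 mM calcium add-back; unnormalised mean endpoint per well; screen run twice, selected wells retested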
# Reading the numbers: calcium signal and retest calcium signal: higher = more calcium entry after store depletion
# Call rule: 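About 1500 genes called as lowering calcium entry, by varying amounts, judged against per-plate control wells with STIM1 as positive and Rho1 as negative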
# Calls: active = called as lowering calcium entry; inactive = not called
# In all, the deposit lists about 20,000 reagents; shown is an unselected part of those that have a named target and a result. Of all reagents, about 2,100 (10%) were called active. 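Raw plate signals without normalisation; calls rest on control-based scores that were not deposited; replicate 2 separates called from uncalled poorly.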 Unmarked entries are inactive. A plus sign joins genes that one reagent is predicted to hit. Not stated in the record: the amount of reagent, the time to read-out.
target gene,DRSC id,"calcium signal, replicate 1","calcium signal, replicate 2","retest calcium signal, replicate 1","retest calcium signal, replicate 2"
Phf7 (GeneID 33015),DRSC20692,159,135,,
LManVI (GeneID 34206),DRSC03224,61.4 (active),86.8,,
CSN7 (GeneID 35816),DRSC06807,165,89.8,,
CSN7 (GeneID 35816),DRSC06808,82.6,130,,
Ciao1 (GeneID 36655),DRSC06170,206,197,,
Exn (GeneID 39900),DRSC09673,92.5,85.7,,
Exn (GeneID 39900),DRSC10077,84.8,150,,
CG15439 (GeneID 33651),DRSC00453,109,105,,
ZnT49B (GeneID 36393),DRSC07225,54.6 (active),193,,
ash1 (GeneID 40133),DRSC11325,111,101,,
Ser7 (GeneID 31917),DRSC18201,113,93.4,,
CG17377 (GeneID 33954),DRSC00950,77.7,159,8648,177
CG17377 (GeneID 33954),DRSC02615,73.7,119,,
CG17377 (GeneID 33954),DRSC21811,56 (active),116,,
trn (GeneID 39491),DRSC11407,68.5 (active),72.3,,
uex (GeneID 5740320),DRSC20784,99.8,8536,,
uex (GeneID 5740320),DRSC20786,95.3,12864,,
Ir62a (GeneID 3885628),DRSC08250,77.8,95.8,,
Atg16 (GeneID 326115),DRSC15052,143,100,,
Atg16 (GeneID 326115),DRSC15300,158,155,,
Atg16 (GeneID 326115),DRSC15375,153,160,,
Jon99Fii + Jon99Cii + Jon99Ciii + 1 more,DRSC15298,136,126,,
CG13631 (GeneID 50073),DRSC14632,148,218,,
CG13631 (GeneID 50073),DRSC23168,137,105,,
otk2 (GeneID 36284),DRSC07303,142,213,,
CG15456 (GeneID 50123),DRSC20527,185,99.2,,
Pex19 (GeneID 34630),DRSC02839,98.3,95.4,,
Obp22a (GeneID 246672),DRSC00088,72.1,141,,
SWIP (GeneID 32594),DRSC19540,93,164,,
Chd1 (GeneID 33505),DRSC00745,110,165,,
CG42694 (GeneID 10178792),DRSC03955,92.6,7738,,
CG1648 (GeneID 36009),DRSC06610,146,150,87.7,98.8
exu (GeneID 37345),DRSC07615,157,93,,
Tsp5D (GeneID 31540),DRSC18380,212,103,,
Pdxk (GeneID 39066),DRSC10419,102,94.2,,
Fpps (GeneID 36209),DRSC07429,142,132,,
Alk (GeneID 53425),DRSC05918,146,147,112,108
Alk (GeneID 53425),DRSC23342,102,128,,
CG10177 (GeneID 42772),DRSC14201,292,126,,
CG13933 (GeneID 38227),DRSC08402,164,104,,
mgr (GeneID 41365),DRSC16099,91,94.9,,
rno (GeneID 38027),DRSC08584,95.3,135,,
Nuak (GeneID 41256),DRSC14414,135,118,,
Nuak (GeneID 41256),DRSC14415,92.6,80.9,,
Nuak (GeneID 41256),DRSC14416,120,91.2,,
ytr (GeneID 47457),DRSC04306,104,100,,
ytr (GeneID 47457),DRSC22073,93.8,258,,
CG5103 (GeneID 40012),DRSC10481,82.3,162,,
CG14006 (GeneID 33802),DRSC02338,167,95.7,,
chico (GeneID 64880),DRSC03531,123,125,,
CG18563 (GeneID 35050),DRSC02676,122,120,,
CG12288 (GeneID 35027),DRSC02155,115,115,,
ena (GeneID 37201),DRSC05779,124,115,,
ena (GeneID 37201),DRSC07610,94.7,131,,
Ilp8 (GeneID 39909),DRSC10076,117,176,,
l(2)gl (GeneID 33156),DRSC00825,163,215,,
CG9294 (GeneID 37491),DRSC04537,188,127,,
TAF1C-like (GeneID 37450),DRSC04073,172,83.8,,
halo (GeneID 33334),DRSC00705,138,147,,
Rim2 (GeneID 33350),DRSC00073,95.3,165,,
Rim2 (GeneID 33350),DRSC00520,116,273,,
Rim2 (GeneID 33350),DRSC22699,102,153,,
CG32793 (GeneID 31280),DRSC18145,107,137,,
CG32793 (GeneID 31280),DRSC18194,110,161,,
CG15771 (GeneID 31500),DRSC18077,172 (active),158,,
GlnRS (GeneID 45786),DRSC14140,97,90.1,,
CG33259 (GeneID 2768950),DRSC10854,62.8,154,,
CG43335 (GeneID 12798413),DRSC15764,154,137,,
CG43335 (GeneID 12798413),DRSC22671,102,120,,
Lap1 (GeneID 36670),DRSC07454,114,166,,
msn (GeneID 44030),DRSC08498,84,101,,
ProRS-m (GeneID 38331),DRSC08261,77,96.3,,
Gpb5 (GeneID 3355097),DRSC21241,110,107,,
CG13474 (GeneID 39600),DRSC10018,83.4,108,,
Yeti (GeneID 7354404),DRSC21138,107,125,,
Vsx2 (GeneID 31469),DRSC17397,9471,165,,
Vsx2 (GeneID 31469),DRSC18087,125,142,,
Vsx2 (GeneID 31469),DRSC18088,140,135,6176,99.3
Vsx2 (GeneID 31469),DRSC18089,104 (active),156,140,5538
Vsx2 (GeneID 31469),DRSC23089,96.8,136,,
Vsx2 (GeneID 31469),DRSC23273,100,105,,
CG32071 (GeneID 39246),DRSC22298,106,231,,
sisA (GeneID 32068),DRSC20374,55.7 (active),124,,
CG44433 (GeneID 37150),DRSC06517,165,161,,
CG44433 (GeneID 37150),DRSC06518,134,120,,
CG15483 (GeneID 34687),DRSC02493,115,108,,
LManIV (GeneID 34204),DRSC03222,77.8 (active),74.3,,
AnxB9 (GeneID 42492),DRSC14111,181,324,,
PGRP-LE (GeneID 32534),DRSC20137,195,133,,
CG1421 (GeneID 35432),DRSC03707,121,92.1,,
CG9101 (GeneID 32452),DRSC20152,92.7,96,,
CG31882 (GeneID 319000),DRSC01084,120,82.1,,
fat-spondin (GeneID 36919),DRSC07617,151,78,,
RpL13 (GeneID 34329),DRSC03416,91.8,123,,
CG5504 (GeneID 48844),DRSC04701,201,91,,
AnxB10 (GeneID 33019),DRSC20677,132,151,,
eff (GeneID 41785),DRSC16940,122,149,,
CG6154 (GeneID 43184),DRSC15977,275,110,,
CG8927 (GeneID 41964),DRSC16458,124,181,,
Acp29AB (GeneID 34162),DRSC01857,163,144,,
lncRNA:CR30121 (GeneID 12798336),DRSC21481,111,112,,
mesh (GeneID 43688),DRSC14472,117,121,174,170
mesh (GeneID 43688),DRSC15098,135,140,,
mesh (GeneID 43688),DRSC15099,205,145,,
RpL24-like (GeneID 41372),DRSC16111,147,141,,
mbo (GeneID 41562),DRSC16123,90.5,112,,

Only “calcium signal, replicate 1”, for 12 of the entries above:
CG44433 (GeneID 37150) [DRSC06517]	165
CG44433 (GeneID 37150) [DRSC06518]	134
CG15483 (GeneID 34687) [DRSC02493]	115
LManIV (GeneID 34204) [DRSC03222]	77.8 (active)
AnxB9 (GeneID 42492) [DRSC14111]	181
PGRP-LE (GeneID 32534) [DRSC20137]	195
CG1421 (GeneID 35432) [DRSC03707]	121
CG9101 (GeneID 32452) [DRSC20152]	92.7
CG31882 (GeneID 319000) [DRSC01084]	120
fat-spondin (GeneID 36919) [DRSC07617]	151
RpL13 (GeneID 34329) [DRSC03416]	91.8
CG5504 (GeneID 48844) [DRSC04701]	201
